Test results reported in publication PMC4066782, “The telomerase inhibitor Gno1p/PINX1 activates the helicase Prp43p during ribosome biogenesis” (Nucleic Acids Research, 2014).
Results are given in words; binding and its absence hold for the method and conditions named. Binding seen in cells or lysates may run through a third protein. Some results given as binding are weak or reduced against the parent protein; the word gives no strength. Where a sequence is shown, tags or fusion partners need not be part of it.

Columns and labels:
Experiment in all cases: co-IP; IgG sepharose beads precipitate the TAP- or ZZ-tagged protein from total yeast extracts; HA-tagged protein detected by western with anti-HA antibodies
[1] = molecular target: T1, Rix1p-TAP (S. cerevisiae) (UniProt P38883)
T1 sequence: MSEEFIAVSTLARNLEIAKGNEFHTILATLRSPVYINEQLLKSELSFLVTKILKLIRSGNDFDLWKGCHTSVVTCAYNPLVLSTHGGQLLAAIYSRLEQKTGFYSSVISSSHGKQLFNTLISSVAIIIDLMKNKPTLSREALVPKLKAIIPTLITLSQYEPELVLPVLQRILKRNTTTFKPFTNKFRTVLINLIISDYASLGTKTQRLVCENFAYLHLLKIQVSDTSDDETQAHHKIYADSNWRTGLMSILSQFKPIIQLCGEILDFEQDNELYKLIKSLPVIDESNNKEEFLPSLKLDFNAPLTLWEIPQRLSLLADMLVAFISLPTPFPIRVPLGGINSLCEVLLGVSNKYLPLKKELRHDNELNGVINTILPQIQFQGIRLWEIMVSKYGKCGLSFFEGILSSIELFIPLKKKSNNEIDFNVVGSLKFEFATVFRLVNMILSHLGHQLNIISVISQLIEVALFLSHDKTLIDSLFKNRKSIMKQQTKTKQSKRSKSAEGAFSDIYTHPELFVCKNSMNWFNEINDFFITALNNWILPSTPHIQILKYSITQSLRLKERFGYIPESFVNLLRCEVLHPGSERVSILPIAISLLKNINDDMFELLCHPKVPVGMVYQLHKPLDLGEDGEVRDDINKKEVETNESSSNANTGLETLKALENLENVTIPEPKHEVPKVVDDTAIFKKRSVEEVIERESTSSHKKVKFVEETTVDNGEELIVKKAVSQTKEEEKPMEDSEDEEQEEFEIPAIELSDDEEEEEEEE

[2] = molecular target: T2, Pfa1p-TAP (S. cerevisiae) (UniProt P53866)
T2 sequence: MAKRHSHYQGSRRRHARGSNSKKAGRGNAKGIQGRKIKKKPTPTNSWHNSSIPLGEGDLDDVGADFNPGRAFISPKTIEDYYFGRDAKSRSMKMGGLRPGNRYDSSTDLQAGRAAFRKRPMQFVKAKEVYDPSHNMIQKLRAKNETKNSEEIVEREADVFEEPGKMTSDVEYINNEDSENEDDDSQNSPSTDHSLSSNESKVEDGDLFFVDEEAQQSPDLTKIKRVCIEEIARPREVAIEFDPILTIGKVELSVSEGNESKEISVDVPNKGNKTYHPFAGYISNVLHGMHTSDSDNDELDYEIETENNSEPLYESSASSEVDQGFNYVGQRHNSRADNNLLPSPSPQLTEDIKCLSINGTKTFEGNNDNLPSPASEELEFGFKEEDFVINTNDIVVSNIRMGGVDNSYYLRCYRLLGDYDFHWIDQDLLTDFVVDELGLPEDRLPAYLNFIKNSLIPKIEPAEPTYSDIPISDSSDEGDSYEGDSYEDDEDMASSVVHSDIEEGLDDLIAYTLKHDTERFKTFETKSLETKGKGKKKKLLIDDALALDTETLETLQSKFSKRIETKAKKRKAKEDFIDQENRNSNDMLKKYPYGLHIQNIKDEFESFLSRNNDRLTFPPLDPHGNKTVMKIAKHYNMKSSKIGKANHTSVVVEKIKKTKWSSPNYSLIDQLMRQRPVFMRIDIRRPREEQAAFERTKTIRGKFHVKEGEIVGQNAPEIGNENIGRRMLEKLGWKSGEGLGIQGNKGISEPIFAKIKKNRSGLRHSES

[3] = molecular target: T3, Arx1p-TAP (S. cerevisiae) (UniProt Q03862)
T3 sequence: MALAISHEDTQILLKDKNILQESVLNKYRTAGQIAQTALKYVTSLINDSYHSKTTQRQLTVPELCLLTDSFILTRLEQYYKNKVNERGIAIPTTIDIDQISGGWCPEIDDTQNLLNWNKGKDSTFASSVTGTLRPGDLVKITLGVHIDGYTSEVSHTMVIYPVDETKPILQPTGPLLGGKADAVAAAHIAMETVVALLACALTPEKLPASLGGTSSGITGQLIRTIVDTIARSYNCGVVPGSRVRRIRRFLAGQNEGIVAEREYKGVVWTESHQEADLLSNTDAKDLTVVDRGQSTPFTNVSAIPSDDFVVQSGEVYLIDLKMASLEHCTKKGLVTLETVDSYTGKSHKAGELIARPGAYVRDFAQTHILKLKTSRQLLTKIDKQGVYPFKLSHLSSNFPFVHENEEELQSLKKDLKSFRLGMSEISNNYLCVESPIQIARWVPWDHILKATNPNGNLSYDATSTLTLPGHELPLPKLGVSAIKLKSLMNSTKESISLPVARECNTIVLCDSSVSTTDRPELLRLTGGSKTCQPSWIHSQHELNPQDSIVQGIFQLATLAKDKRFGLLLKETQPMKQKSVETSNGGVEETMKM

[4] = molecular target: T4, Ssf1p-TAP (S. cerevisiae) (UniProt P38789)
T4 sequence: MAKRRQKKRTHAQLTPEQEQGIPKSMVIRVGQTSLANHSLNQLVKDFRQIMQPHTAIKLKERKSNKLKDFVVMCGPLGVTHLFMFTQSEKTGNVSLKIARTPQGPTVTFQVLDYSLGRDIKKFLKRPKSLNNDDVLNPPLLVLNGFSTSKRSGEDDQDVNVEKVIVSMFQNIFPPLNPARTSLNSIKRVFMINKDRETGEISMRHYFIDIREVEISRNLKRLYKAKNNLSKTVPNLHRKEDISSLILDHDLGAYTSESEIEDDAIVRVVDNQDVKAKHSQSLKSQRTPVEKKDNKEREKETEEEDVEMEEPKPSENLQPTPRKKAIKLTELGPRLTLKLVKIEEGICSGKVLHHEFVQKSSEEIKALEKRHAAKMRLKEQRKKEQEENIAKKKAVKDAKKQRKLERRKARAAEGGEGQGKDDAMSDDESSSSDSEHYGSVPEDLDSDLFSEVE

binding [1]: no binding
binding [2]: no binding
binding [3]: no binding
binding [4]: binds
B1: Gno1p-HA (GNO1-HA-TRP1 cassette, made with plasmid pFA6a-3HA-TRP1) (protein, UniProt P53335 1-271)
chain: MGLAATRTKQRFGLDPRNTAWSNDTSRFGHQFLEKFGWKPGMGLGLSPMNSNTSHIKVSIKDDNVGLGAKLKRKDKKDEFDNGECAGLDVFQRILGRLNGKESKISEELDTQRKQKIIDGKWGIHFVKGEVLASTWDPKTHKLRNYSNAKKRKREGDDSEDEDDDDKEDKDSDKKKHKKHKKHKKDKKKDKKDKKEHKKHKKEEKRLKKEKRAEKTKETKKTSKLKSSESASNIPDAVNTRLSVRSKWIKQKRAALMDSKALNEIFMITND
